This is one part of the list. Most values lie at the level of the controls, where differences are scatter.

Protein sequences, listed by entry. Tags and fused reporters are not part of them. Lines headed by an entry give the natural chain unless they say otherwise; changes in a name come on top.
UniProt Q3U4I7: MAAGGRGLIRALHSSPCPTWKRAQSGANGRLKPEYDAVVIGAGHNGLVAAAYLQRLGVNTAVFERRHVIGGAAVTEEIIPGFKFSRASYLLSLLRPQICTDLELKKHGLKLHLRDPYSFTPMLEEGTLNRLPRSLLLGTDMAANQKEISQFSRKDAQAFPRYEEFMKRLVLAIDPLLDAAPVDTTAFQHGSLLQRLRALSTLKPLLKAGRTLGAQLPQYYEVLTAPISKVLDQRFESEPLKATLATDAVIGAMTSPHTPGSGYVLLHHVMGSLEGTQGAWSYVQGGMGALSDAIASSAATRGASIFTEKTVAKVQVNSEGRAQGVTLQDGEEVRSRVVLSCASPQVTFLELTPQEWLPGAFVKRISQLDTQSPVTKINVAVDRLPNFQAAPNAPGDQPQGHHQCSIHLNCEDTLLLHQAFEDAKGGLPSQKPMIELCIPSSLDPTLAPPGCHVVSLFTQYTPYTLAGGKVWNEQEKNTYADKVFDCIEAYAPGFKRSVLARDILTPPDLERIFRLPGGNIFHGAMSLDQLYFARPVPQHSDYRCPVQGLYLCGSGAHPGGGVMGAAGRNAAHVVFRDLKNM
UniProt Q3UHC7: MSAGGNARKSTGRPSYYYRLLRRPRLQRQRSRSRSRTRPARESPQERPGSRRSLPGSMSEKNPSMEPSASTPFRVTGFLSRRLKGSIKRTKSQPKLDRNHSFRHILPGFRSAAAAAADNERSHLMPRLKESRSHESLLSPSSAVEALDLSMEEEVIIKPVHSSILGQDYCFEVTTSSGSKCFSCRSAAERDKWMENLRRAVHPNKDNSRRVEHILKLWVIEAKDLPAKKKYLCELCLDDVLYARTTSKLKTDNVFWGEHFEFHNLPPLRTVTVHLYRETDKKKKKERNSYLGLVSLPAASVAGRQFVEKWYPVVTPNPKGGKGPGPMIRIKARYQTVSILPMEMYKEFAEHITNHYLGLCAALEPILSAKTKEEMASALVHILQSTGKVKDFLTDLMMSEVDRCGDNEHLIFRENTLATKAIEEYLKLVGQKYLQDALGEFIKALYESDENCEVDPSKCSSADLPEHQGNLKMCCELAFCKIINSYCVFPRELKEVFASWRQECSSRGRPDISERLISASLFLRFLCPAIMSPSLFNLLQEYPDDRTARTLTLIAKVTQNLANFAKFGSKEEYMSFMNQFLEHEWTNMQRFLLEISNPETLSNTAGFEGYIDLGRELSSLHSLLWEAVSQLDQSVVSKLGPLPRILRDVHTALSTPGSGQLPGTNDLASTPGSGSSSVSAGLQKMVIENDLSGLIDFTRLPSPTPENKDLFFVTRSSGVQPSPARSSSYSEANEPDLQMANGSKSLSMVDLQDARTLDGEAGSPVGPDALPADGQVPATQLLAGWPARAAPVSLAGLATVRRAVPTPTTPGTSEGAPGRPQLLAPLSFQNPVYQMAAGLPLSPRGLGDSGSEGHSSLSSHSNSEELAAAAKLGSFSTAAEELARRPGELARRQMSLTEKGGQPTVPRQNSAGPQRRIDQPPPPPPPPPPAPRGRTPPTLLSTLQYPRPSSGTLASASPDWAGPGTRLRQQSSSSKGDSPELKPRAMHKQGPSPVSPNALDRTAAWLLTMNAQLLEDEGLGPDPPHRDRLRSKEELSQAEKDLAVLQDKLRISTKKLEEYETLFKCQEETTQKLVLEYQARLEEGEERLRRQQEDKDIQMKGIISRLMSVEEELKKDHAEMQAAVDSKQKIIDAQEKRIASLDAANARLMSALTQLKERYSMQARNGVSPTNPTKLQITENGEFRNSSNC
UniProt Q3UR97: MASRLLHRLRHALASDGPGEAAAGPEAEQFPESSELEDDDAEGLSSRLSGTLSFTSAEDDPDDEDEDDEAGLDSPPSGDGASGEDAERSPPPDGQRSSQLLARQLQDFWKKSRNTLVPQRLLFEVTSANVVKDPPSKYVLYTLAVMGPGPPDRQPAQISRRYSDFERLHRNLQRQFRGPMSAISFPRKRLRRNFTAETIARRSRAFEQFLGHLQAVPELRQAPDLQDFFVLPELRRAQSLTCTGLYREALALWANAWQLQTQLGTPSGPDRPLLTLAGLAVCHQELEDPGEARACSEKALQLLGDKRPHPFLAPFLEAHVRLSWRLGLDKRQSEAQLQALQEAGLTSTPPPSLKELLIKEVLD
UniProt Q3UV55: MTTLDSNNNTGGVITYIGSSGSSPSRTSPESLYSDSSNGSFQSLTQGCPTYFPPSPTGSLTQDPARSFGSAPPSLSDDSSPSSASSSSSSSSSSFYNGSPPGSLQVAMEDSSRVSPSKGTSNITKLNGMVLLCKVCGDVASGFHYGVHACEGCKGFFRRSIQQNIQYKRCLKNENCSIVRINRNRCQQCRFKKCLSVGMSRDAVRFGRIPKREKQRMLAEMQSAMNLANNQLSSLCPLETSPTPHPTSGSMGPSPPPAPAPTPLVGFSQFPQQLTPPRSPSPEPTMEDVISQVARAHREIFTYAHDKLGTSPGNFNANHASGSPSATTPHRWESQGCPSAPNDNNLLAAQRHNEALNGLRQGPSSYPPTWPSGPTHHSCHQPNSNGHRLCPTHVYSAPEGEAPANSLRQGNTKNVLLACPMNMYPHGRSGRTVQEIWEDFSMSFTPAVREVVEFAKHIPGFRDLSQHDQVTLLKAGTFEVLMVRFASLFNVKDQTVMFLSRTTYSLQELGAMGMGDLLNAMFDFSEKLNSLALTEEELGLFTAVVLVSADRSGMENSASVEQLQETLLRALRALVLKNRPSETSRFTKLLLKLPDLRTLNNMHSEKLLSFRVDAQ
UniProt Q3UMM4: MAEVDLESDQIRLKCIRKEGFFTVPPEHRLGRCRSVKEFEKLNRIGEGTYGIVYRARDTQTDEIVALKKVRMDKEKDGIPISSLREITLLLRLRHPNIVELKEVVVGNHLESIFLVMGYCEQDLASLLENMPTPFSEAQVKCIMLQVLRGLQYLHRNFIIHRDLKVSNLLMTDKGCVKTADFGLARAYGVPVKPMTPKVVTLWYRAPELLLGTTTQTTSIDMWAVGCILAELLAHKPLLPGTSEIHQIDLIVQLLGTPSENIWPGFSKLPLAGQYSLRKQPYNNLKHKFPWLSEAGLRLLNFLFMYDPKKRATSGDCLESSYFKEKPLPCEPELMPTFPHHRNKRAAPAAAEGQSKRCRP
UniProt Q3UHX0: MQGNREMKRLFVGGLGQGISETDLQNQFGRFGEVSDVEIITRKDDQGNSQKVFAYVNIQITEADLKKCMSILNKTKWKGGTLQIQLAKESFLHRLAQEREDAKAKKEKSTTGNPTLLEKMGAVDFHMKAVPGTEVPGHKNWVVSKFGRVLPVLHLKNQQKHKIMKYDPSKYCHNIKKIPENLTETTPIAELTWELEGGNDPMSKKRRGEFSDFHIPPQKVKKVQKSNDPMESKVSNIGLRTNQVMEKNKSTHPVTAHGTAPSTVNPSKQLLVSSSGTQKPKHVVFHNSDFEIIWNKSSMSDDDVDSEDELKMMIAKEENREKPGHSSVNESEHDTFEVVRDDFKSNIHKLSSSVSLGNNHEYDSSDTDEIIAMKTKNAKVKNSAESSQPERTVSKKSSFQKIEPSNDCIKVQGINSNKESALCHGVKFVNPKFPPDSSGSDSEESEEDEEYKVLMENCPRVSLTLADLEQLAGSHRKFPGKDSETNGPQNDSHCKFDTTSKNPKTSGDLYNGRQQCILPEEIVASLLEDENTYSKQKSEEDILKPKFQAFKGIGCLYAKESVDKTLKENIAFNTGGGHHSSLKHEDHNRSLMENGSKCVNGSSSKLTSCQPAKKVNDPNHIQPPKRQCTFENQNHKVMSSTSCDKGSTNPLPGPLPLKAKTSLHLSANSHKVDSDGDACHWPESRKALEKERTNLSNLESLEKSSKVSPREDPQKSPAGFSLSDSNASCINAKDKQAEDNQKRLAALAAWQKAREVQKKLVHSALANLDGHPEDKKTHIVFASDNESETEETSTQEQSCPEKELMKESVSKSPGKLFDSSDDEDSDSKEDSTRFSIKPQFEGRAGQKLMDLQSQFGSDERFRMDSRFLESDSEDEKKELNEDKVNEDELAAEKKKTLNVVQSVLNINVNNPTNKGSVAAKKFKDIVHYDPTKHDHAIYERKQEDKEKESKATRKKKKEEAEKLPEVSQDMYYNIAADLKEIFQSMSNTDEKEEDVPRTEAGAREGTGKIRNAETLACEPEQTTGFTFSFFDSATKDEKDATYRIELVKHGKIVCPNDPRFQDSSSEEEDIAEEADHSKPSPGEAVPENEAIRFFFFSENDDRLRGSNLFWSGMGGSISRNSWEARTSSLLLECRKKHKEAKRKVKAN
UniProt Q3UHU5: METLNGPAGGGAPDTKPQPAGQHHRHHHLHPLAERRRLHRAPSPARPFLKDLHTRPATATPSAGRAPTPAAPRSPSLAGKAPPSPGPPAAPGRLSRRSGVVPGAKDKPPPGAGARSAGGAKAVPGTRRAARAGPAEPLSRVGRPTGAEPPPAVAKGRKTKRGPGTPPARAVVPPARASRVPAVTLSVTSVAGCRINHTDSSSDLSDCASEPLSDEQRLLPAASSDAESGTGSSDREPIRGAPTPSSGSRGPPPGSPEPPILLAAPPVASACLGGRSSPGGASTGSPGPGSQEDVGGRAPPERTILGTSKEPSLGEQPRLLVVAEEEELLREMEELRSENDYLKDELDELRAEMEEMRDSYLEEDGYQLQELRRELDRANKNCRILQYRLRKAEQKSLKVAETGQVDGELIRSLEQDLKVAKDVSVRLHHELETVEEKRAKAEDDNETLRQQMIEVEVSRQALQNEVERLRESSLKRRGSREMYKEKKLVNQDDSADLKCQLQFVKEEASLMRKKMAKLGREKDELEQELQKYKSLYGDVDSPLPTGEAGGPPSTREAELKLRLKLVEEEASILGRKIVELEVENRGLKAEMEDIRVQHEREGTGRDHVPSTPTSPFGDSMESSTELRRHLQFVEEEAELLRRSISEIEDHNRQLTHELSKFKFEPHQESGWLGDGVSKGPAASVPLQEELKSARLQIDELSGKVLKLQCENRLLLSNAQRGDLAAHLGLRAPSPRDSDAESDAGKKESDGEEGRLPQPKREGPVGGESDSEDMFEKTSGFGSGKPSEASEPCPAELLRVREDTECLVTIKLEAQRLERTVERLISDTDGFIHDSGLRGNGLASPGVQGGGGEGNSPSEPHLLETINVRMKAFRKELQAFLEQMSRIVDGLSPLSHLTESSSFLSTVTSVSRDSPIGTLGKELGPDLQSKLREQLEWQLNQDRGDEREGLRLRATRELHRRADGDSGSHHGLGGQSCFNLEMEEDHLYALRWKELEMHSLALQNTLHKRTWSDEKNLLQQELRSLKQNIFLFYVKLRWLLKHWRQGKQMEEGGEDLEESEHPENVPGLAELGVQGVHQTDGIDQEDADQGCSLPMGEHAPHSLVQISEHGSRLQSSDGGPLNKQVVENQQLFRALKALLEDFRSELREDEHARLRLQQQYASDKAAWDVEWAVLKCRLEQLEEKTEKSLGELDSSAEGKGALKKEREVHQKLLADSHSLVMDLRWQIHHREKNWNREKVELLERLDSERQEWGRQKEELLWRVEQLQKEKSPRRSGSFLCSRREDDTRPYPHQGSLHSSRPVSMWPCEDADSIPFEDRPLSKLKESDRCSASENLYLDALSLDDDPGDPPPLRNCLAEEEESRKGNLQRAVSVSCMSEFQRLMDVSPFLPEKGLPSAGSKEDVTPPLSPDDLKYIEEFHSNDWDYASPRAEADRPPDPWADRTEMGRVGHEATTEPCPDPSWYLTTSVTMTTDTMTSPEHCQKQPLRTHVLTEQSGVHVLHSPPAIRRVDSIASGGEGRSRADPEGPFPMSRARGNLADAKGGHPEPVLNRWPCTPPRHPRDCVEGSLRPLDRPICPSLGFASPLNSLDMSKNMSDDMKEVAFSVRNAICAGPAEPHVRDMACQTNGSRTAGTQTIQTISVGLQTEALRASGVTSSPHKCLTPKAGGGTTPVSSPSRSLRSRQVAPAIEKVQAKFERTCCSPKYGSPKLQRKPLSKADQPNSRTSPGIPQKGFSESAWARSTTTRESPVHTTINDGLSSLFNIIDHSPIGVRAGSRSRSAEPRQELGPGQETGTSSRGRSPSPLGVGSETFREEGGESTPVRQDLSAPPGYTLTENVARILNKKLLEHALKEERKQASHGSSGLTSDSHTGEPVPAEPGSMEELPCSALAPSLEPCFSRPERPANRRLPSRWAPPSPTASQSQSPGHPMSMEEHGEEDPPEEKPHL
UniProt Q3UN90: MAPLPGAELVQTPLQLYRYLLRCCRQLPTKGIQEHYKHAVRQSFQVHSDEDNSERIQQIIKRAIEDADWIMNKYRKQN
UniProt Q4VAE3: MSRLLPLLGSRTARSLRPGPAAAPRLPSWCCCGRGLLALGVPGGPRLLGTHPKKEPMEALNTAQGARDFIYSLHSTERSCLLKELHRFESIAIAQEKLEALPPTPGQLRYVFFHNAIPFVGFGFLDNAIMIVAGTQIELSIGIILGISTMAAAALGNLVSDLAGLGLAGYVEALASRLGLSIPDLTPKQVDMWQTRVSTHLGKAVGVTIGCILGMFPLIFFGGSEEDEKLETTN

Compound in the test: CN[C@@H]1C[C@H]2O[C@@](C)([C@@H]1OC)n1c3ccccc3c3c4c(c5c6ccccc6n2c5c31)C(=O)NC4 [staurosporine]
The test is described as follows: log2 fold change of tryptic peptide abundance, ligand vs vehicle (limited proteolysis) (log2 ratio); higher = more trypsin-susceptible (destabilized). The note with it: ligand concentration: 20 uM; sample: mouse liver crude lysate; replicate design: treated separately.
Consider “UniProt Q3UFS0 (peptide sequence: VSGEANETQIAEALRR, peptide start residue: 318)”, for which the log2 fold change stood at 0.222.

Take “UniProt Q3UEG6 (peptide sequence: QHLSPVDTAYFR, peptide start residue: 71)”: the log2 fold change is -0.262.

As to “UniProt Q571I4 (peptide sequence: GGCGSPSLQCR, peptide start residue: 881)”, the log2 fold change was -0.178.

Take “UniProt Q4G5Y1 (peptide sequence: HLLHSVNQR, peptide start residue: 389)”: the log2 fold change worked out at 0.187.

On to “UniProt Q3U4I7 (peptide sequence: ALSTLKPLLK, peptide start residue: 198)”, for which the log2 fold change was determined as 0.0503.

For “UniProt Q3UHC7 (peptide sequence: LVLEYQAR, peptide start residue: 1073)”, the log2 fold change is -0.231.

“UniProt Q501J6 (peptide sequence: LMQLVDHR, peptide start residue: 469)”: the log2 fold change was 0.164.

For “UniProt Q3UQ84 (peptide sequence: FGLFEELWTAHVK, peptide start residue: 41)”, the log2 fold change is 0.55.

Regarding “UniProt Q3UR97 (peptide sequence: QLQDFWK, peptide start residue: 104)”, the log2 fold change was -0.344.

Turning to “UniProt Q505F5 (peptide sequence: DVRPYIVGAIVR, peptide start residue: 330)”, the log2 fold change came to 0.14.

On to “UniProt Q3UV55 (peptide sequence: NVLLACPMNMYPHGR, peptide start residue: 414)”, for which the log2 fold change turned out to be 0.181.

Turning to “UniProt Q3UMM4 (peptide sequence: IGEGTYGIVYR, peptide start residue: 45)”, the log2 fold change is -0.49.

In the case of “UniProt Q3UHX0 (peptide sequence: TLKENIAFNTGGGHHSSLK, peptide start residue: 565)”, the log2 fold change is -0.692.

“UniProt Q505K2 (peptide sequence: ILEKHDPLKNTQAK, peptide start residue: 39)”: the log2 fold change came to 0.4.

On to “UniProt Q3U6U5 (peptide sequence: LGGPQLGWLYK, peptide start residue: 460)”, for which the log2 fold change is -0.19.

Turning to “UniProt Q3UCV8 (peptide sequence: WVSLAAMK, peptide start residue: 199)”, the log2 fold change came out at 0.18.

Turning to “UniProt Q3UQA7 (peptide sequence: VELWTGIK, peptide start residue: 85)”, the log2 fold change came out at 0.164.

As for “UniProt Q3UHU5 (peptide sequence: RSGVVPGAK, peptide start residue: 97)”, the log2 fold change was -0.00913.

Regarding “UniProt Q3UN90 (peptide sequence: QSFQVHSDEDNSER, peptide start residue: 42)”, the log2 fold change was -0.614.

For the target “UniProt Q3UJK4 (peptide sequence: EVDYDSDVPR, peptide start residue: 145)”, the log2 fold change was -0.497.

With “UniProt Q3V1L4 (peptide sequence: LQNAADVPANMDKHALKK, peptide start residue: 9)”, the log2 fold change was -0.261.

In the case of “UniProt Q4VAE3 (peptide sequence: ELHRFESIAIAQEK, peptide start residue: 84)”, the log2 fold change is -0.053.

In the case of “UniProt Q3UHH8 (peptide sequence: GVYHDDKQPAFR, peptide start residue: 332)”, the log2 fold change is -0.215.

Turning to “UniProt Q3UQU0 (peptide sequence: SIPMRPADEMK, peptide start residue: 463)”, the log2 fold change came out at 0.279.

For the target “UniProt Q3UA37 (peptide sequence: NAELEKDAQNR, peptide start residue: 491)”, the log2 fold change was found to be 0.316.

Take “UniProt Q3UPL5 (peptide sequence: KSFLQSLECLRR, peptide start residue: 205)”: the log2 fold change is 0.19.

For “UniProt Q3UMC0 (peptide sequence: GVLLYGPPGCSK, peptide start residue: 663)”, the log2 fold change is -0.306.

On to “UniProt Q3UFY8 (peptide sequence: ELIEMWR, peptide start residue: 91)”, for which the log2 fold change is -0.198.

Turning to “UniProt Q3UE31 (peptide sequence: VTSFSTPPTPER, peptide start residue: 285)”, the log2 fold change was -0.295.

Consider “UniProt Q3USJ8 (peptide sequence: AAPPPPTQNHR, peptide start residue: 716)”, for which the log2 fold change was -0.4.

Regarding “UniProt Q3UR85 (peptide sequence: AGSVPHKKR, peptide start residue: 734)”, the log2 fold change is -0.209.

The values above are taken from the supplement of paper PMC12819154, “High-throughput peptide-centric local stability assay extends protein–ligand identification to membrane proteins, tissues and bacteria” (Nature Structural & Molecular Biology, 2025).
